Results: article PMC3124419, “Elucidating the domain architecture and functions of non-core RAG1: The capacity of a non-core zinc-binding domain to function in nuclear import and nucleic acid binding” (BMC Biochemistry, 2011)
For part of these data: No signal at the amounts used counts as a negative. For part of these data: At least one verdict rests on a figure or table, not on a statement of the authors. For part of these data: Where a protein sequence is shown, tags need not be part of it. For part of these data: Weaker means in comparison with the reference protein, sequence or condition of that experiment. For part of these data: The exact form of at least one protein or probe is not confirmed.

Tests used:
Assay in all cases: EMSA
MBP-CND+bZDD (murine) = molecular target: T1, MBP-CND+bZDD (murine) (UniProt P15919); settings: 5 mM Mg2+, EMSA: 10 mM Tris pH 8.0, 5 mM MgCl2, 2 mM DTT, 6% glycerol, 100 mM NaCl, 25 C, 1 nM 32P-DNA, 3.5/8% discontinuous nondenaturing gel, recombinant protein, residues 87-380, protein details: N-terminal MBP
T1 sequence (looked up): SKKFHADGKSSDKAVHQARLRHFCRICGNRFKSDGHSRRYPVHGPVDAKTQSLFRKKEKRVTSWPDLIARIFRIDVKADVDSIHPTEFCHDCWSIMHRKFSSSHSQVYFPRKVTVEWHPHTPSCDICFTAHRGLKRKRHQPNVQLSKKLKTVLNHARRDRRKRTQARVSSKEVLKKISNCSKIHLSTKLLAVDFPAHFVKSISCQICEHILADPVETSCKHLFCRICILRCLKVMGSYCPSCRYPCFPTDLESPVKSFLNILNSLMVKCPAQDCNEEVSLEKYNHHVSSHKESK

[1] = molecular target: T2, MBP-CND (RAG1 central non-core domain) (murine) (UniProt P15919); settings: 5 mM Mg2+, EMSA: 10 mM Tris pH 8.0, 5 mM MgCl2, 2 mM DTT, 6% glycerol, 100 mM NaCl, 25 C, 1 nM 32P-DNA, 3.5/8% discontinuous nondenaturing gel, recombinant protein, residues 87-217, protein details: N-terminal MBP
T2 sequence (looked up): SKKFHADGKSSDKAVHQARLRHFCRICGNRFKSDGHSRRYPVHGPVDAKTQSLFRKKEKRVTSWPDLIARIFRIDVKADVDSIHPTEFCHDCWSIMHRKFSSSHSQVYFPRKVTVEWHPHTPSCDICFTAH

MBP-RAG1(1-86) (murine) = molecular target: T3, MBP-RAG1(1-86) (murine) (UniProt P15919); settings: 5 mM Mg2+; EMSA: 10 mM Tris pH 8.0, 5 mM MgCl2, 2 mM DTT, 6% glycerol, 100 mM NaCl, 25 C, 1 nM 32P-DNA; 3.5/8% discontinuous nondenaturing gel; recombinant protein; residues 1-86; protein details: N-terminal MBP; label: 5' 32P top strand (unlabeled as competitor)
T3 sequence (looked up): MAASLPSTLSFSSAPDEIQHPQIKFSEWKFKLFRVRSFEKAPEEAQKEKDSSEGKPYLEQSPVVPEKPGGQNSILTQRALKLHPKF

[2] = molecular target: MBP-CND, DTPA-treated (apo) (murine) (UniProt P15919); settings: DTPA-treated protein; EMSA: 10 mM Tris pH 8.0, 5 mM MgCl2, 2 mM DTT, 6% glycerol, 100 mM NaCl, 25 C, 1 nM 32P-DNA; 3.5/8% discontinuous nondenaturing gel; recombinant protein; residues 87-217; protein details: N-terminal MBP; label: 5' 32P top strand
[3] = label: 5' 32P, single-stranded DNA

GATATGGCTCGTCTTA [16 nt ss coding flank (top strand)]
binding result (MBP-CND+bZDD (murine); [3]): binds more weakly | binding result [1, 3]: binds more weakly

GATATGGCTCGTCTTACACAGTGATATAGACCTTAACAAAAACCTCCAATCGAGCGGAG (double strand) [WT 12-RSS]
binding result (MBP-RAG1(1-86) (murine)): no binding

GATATGGCTCGTCTTA (double strand) [16 bp ds coding flank]
binding result (MBP-CND+bZDD (murine); label: 5' 32P top strand): binds | binding result ([1]; label: 5' 32P top strand): binds | binding result [2]: binds more weakly
